# Hit rate of the full screen: of about 360,000 compounds, about 9,100 (2.5%) were called active. The shares of active, inactive and inconclusive entries below differ from those in the screen. Rule as the data show it: active = max response below about -50%; inconclusive = no clear call, values can overlap the other calls; inactive = above that.
# The chains behind the UniProt entries cited, without tags or fusion partners.
# UniProt P35462, whole entry, looked up: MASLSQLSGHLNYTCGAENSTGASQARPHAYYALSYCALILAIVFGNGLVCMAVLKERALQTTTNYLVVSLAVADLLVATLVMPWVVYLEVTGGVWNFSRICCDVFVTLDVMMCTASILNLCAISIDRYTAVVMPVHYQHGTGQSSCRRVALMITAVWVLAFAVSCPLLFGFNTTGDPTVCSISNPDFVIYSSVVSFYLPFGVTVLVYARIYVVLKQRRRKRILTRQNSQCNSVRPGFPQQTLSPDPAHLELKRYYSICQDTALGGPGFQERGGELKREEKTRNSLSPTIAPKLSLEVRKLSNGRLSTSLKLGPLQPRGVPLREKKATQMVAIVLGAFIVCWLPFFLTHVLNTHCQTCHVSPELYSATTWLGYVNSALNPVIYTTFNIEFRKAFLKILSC
# Target: D(3) dopamine receptor (Homo sapiens) (UniProt P35462)
# Test: qHTS of D3 Dopamine Receptor Antagonist: qHTS
# Conditions: D3R cells, DiscoveRx beta-arrestin luminescence, antagonist mode; stronger effect = lower value
# Summary of the method: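 Cells expressing the human receptor were seeded at 1500 cells/well, incubated overnight at 37 degrees C in 5% CO2, then exposed to library compounds with dopamine controls for 90 minutes at 37 degrees C before luminescent detection.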
# % is scaled to controls: 0 for no effect and ±100 for the full control effect.
row,Structure (SMILES),"max response, negative = inhibition"
1,O=C(c1ccccc1F)N1CCCC(N2CCN(Cc3ccc4c(c3)OCO4)CC2)C1 (stereo unspecified),inconclusive: -38.9%
2,COC(=O)C1(C)NC(c2ccc(OC)cc2)C2C(=O)N(c3ccccc3)C(=O)C21 (stereo unspecified),inconclusive: -31.3%
3,CCN(CC)c1ccc(/C=N\N2CCN(Cc3ccc(C)cc3)CC2)cc1,inconclusive: -39.3%
4,C=CCNc1nc2cc(-c3cccc(Cl)c3)sc2c(=O)n1C,inactive: 16.3%
5,CN(Cc1ccc(OC(F)F)cc1)C(=O)c1cccc(S(=O)(=O)N2CCN(Cc3ccccc3)CC2)c1,inconclusive: -32.4%
6,CCOc1ccccc1-c1c2cc(O)c(=O)cc-2oc2cc(O)c(O)cc12,active: -58.3%
7,CCCCCC(=O)N/N=C/c1cccs1,inactive: 15.7%
8,CCN(CC)CCSc1nc(O)c(-c2ccccc2)c(=O)n1-c1ccccc1,inconclusive: -42.8%
9,CCN1CCN(CCCOc2ccc(Cl)cc2Br)CC1,inconclusive: -40.1%
10,CC(=O)N1c2c(cc(Br)cc2S(=O)(=O)NCc2ccc(C)cc2)CC1C (stereo unspecified),inconclusive: -47%
11,Cc1ccc(C)c(S(=O)(=O)Nc2ccc(C(=O)NCC(c3ccco3)N(C)C)cc2)c1 (stereo unspecified),active: -52.9%
12,COc1ccccc1/C=C/c1nc(C#N)c(N(C)C)o1,inactive: -10.9%
13,S=c1[nH]nc(-c2ccccc2)n1Cc1ccccc1,inconclusive: -44.8%
14,Clc1ccc(CNc2ccc(N3CCN(Cc4ccccc4)CC3)cc2)cc1,inconclusive: -47.9%
15,CC(C)CC(C(=O)O)N1C(=O)[C@@H]2[C@H](C1=O)[C@@H]1C[C@H]2C(Br)C1Br (stereo partly specified),inconclusive: -32.4%
16,Cc1nnsc1NC(=O)OCCCl,inactive: 0%
17,O=C(Oc1ccc2ccc(OC(=O)N3CCCCCC3)cc2c1)N1CCCCCC1,inconclusive: -33.4%
18,Cc1cc(OCc2nc(N)nc(N)c2-c2ccc(Cl)c(Cl)c2)ccc1[N+](=O)[O-],inactive: 33.3%
19,CCCCCCCCCCCCN1[C@@H](CC(=O)OC)c2cc(C(F)(F)F)ccc2S1(=O)=O,inconclusive: -31.5%

row,Structure (SMILES),"max response, negative = inhibition"
1,O=C(NCc1ccccn1)c1c(O)c2cccc3c2n(c1=O)CC3,active: -56.3%
2,CCN(CC)C(=O)C1CCCN(C(=O)Nc2ccc3nsnc3c2)C1 (stereo unspecified),inconclusive: -42.5%
3,COc1ccc(F)cc1S(=O)(=O)Nc1ccc2c(c1)OCCO2,inconclusive: -38.4%
4,CCOc1ccc(NC(=O)C(Cc2ccccc2)N2C(=O)c3cccc4cccc(c34)C2=O)cc1 (stereo unspecified),inactive: 9.11%
5,COc1ccc(OC)c(-c2csc3nnc(SCC(=O)Nc4ccc(NC(C)=O)cc4)n23)c1,inconclusive: -45.8%
6,O=C(CC12CC3CC(CC(C3)C1)C2)NC(=S)NCc1ccco1,inconclusive: -45.5%
7,CC1C/C(=N/N2C(=O)CSC2=S)CC(C)(C)C1 (stereo unspecified),active: -63.5%
8,O=S(=O)(c1ccccc1)N1CCN(Cc2cccc(Cl)c2)CC1,inconclusive: -42.4%
9,COc1cccc(N=Cc2c(O)c3ccccc3oc2=O)c1,inconclusive: -39.5%
10,O=C(CN1C(=O)COc2ccccc21)Nc1ccc(F)cc1,inconclusive: -33.9%
11,COc1ccc(OC)c(NC(=O)Nc2nc(C(C)N)cs2)c1 (stereo unspecified),inactive: -11.6%
12,Nc1ccc2nn(-c3cccc4ccccc34)nc2c1,inconclusive: -33.4%
13,Cc1oc2c(C)c3oc(=O)c(CCC(=O)NCCCN4CCOCC4)c(C)c3cc2c1C,inconclusive: -34.7%
14,CN(Cc1nc(Cc2ccccc2F)no1)CC1(N2CCOCC2)CCCCC1,inactive: 2.56%
15,Cc1c(Nc2cc(N3CCCC(C)C3)c3nonc3c2[N+](=O)[O-])c(=O)n(-c2ccccc2)n1C (stereo unspecified),inconclusive: -31.4%
16,COC(=O)Cc1c(C)c2c(OCc3nn[nH]n3)cc(C)cc2oc1=O,inconclusive: -48.4%
17,Cc1ccc(NC(=S)N2CCN(CCN3C(=O)c4cccc5cccc(c45)C3=O)CC2)cc1,inconclusive: -31%
18,O=C1c2ccccc2S(=O)(=O)c2cc(C(=O)N3CCN(c4ccccc4)CC3)ccc21,inactive: 4.15%
19,CCC(C)(C)n1nnnc1CN1CCc2ccccc21,inconclusive: -32.1%

row,Structure (SMILES),"max response, negative = inhibition"
1,COC(=O)c1ccc(C(=O)OC)c(NC(=O)COC(=O)c2ccc(OC)c(OC)c2OC)c1,inactive: 15.6%
2,CCCC(C(=O)n1nc(C)cc1C)C(NS(=O)(=O)c1ccc(C)cc1)c1ccccc1 (stereo unspecified),inconclusive: -44.9%
3,COc1cc(/C=C/c2cc(OC(C)=O)c3ccccc3n2)c(OC(C)=O)c([N+](=O)[O-])c1,active: -82.2%
4,Brc1ccccc1-c1nnc(COc2cccc3cccnc23)o1,inconclusive: -49.1%
5,Cc1noc(C)c1S(=O)(=O)NCCN1CCN(c2ccccc2)CC1,inconclusive: -31.7%
6,COc1ccc(OCc2n[nH]c(=S)n2Cc2ccco2)cc1,inconclusive: -30.7%
7,CCN(CC)S(=O)(=O)c1cccc(C(=O)N/N=C2\CCCC(=O)C2)c1,inactive: -9.38%
8,COc1ccccc1-c1nc(S(=O)(=O)c2ccc(Cl)cc2)c(N(C)C)o1,inactive: 3.92%
9,CS(=O)(=O)c1cccc(C(=O)Nc2nnc(C3=COCCO3)o2)c1,inactive: -22.7%
10,CC1CC(C)CN(CCCNC(=O)CC2Oc3ccccc3NC2=O)C1 (stereo unspecified),inconclusive: -43.9%
11,CCC(c1nnnn1Cc1ccco1)N(Cc1ccccc1OC)Cc1cc2cc(C)ccc2[nH]c1=O (stereo unspecified),inactive: -21.8%
12,CC1=CC(C)(C)N2C(=O)C(=O)c3cc(OC(=O)c4ccco4)cc1c32,inconclusive: -37%
13,CCOC(=O)c1[nH]c2ccccc2c1NC(=O)CCN1CCN(C(=O)OCC)CC1,inconclusive: -41.3%
14,O=c1[nH]nc(SCc2ccccc2)c(=O)[nH]1,inconclusive: -32.6%
15,Oc1ccc(N=Nc2cccc(Cl)c2)cc1C=Nc1ccc(N2CCOCC2)cc1,active: -75.5%
16,Cc1cc(-c2ccccc2)nc2[nH]n(-c3ccccc3)c(=O)c12,active: -68.5%
17,CCOC(=O)CC(=O)Nc1c(C)cc(C)cc1C,inconclusive: -42%
18,O=C(NCc1ccco1)c1ccc(COc2cc(Cl)ccc2Cl)cc1,inactive: -4.19%

# Looked up one by one from the list above:
row,Structure (SMILES),"max response, negative = inhibition"
1,COC(=O)c1ccc(C(=O)OC)c(NC(=O)COC(=O)c2ccc(OC)c(OC)c2OC)c1,inactive: 15.6%
3,COc1cc(/C=C/c2cc(OC(C)=O)c3ccccc3n2)c(OC(C)=O)c([N+](=O)[O-])c1,active: -82.2%

# Source: PubChem BioAssay AID652054 (National Center for Advancing Translational Sciences (NCATS), 2013)
